No constants are given. Whether binding was seen depends on the method and setting. Some results given as binding are weak or reduced against the parent protein; the word gives no strength. Where a sequence is shown, tags or fusion partners need not be part of it.
B1: 单克隆抗体R1 (scFv fused to FLAG tag or hFc) (scFv)
scFv: QSVKESEGGLFKPTDTLTLTCTVSGFSLSSNAISWVRQAPGNGLEYIGYISYRGNTYYASWARSRSTITRNTNENTVTLKMTRLTAADTATYFCARIRSYSRANGHADGFDPWGPGTLVTVSSGGGGSGGGGSGGGGSDVVMTQTPSSVSAAVGGTVTINCQASESISNLLAWYQQKPGQPPKLLIYGASNLESGVPSRFRGSGSGTQFTLTISGVKDEDVATYYCQSGRYAAGATFGAGTNVEIK
B2: 单克隆抗体R9 (scFv fused to FLAG tag or hFc) (scFv)
scFv: QSVKESEGGLFKPTDTLTLTCTVSGSSLRSYGVSWVRQAPGTGLEWIGAIGRSGSAYYASWAKSRSTITRNTNDNTVTLKMTSLTAADTATYFCARAYFGNSIGPFNIWGPGTLVTVSSGGGGSGGGGSGGGGSAIVLTQTPSSVSAPVGGTVTINCQASQSVSNLLAWYQQKPGQPPKLLIYGASNLESGVPSRFRGSGSGTQFTLTISGVKAEDVAAYYCHQHSSFPLTFGAGTKVEIK

Protein sequences, listed by entry. Tags and fused reporters are not part of them. Residues count along the entry.
UniProt P03200, residues 1-860: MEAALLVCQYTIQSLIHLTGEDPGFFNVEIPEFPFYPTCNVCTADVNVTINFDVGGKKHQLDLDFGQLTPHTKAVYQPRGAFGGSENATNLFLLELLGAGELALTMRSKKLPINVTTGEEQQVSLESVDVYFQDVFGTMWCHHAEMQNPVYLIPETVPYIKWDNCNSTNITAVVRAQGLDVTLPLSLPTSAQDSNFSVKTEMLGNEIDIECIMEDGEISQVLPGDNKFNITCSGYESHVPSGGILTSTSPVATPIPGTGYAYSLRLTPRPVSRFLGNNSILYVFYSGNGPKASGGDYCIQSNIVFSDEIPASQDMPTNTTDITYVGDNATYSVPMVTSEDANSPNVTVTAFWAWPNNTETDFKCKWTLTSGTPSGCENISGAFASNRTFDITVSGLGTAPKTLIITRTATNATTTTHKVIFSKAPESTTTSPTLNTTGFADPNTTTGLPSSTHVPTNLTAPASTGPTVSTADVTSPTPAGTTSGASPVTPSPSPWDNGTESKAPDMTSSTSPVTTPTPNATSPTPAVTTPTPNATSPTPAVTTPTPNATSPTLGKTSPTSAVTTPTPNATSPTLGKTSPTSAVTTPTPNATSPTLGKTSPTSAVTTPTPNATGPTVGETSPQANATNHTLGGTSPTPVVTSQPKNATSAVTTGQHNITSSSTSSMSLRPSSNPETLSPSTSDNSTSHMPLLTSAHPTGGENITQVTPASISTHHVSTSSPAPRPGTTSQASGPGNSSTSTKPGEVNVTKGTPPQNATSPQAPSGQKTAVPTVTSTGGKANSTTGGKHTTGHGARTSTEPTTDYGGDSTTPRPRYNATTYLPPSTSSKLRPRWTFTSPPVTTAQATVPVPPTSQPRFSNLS

Legend:
[1] = target: 重组的gp350蛋白 (Epstein-Barr virus) (UniProt P03200); assay: phage display, 4 rounds of affinity selection
[2] = target: gp350-hFc (Epstein-Barr virus) (UniProt P03200); assay: ELISA, gp350-hFc coated, titrated binder

Row | Binder | binding [1] | binding [2]
1 | B1 | binds | binds
2 | B2 | binds | binds

Source: patent CN114409766A
